No constants are given. Whether binding was seen depends on the method and setting. In cells and extracts the contact can be indirect. Some results given as binding are weak or reduced against the parent protein; the word gives no strength.

The target in test [1] is HIV-1 IIIB capsid-nucleocapsid (CANC) nanotubes, assembled in vitro (HIV-1 IIIB) (UniProt P04591). The test is described as follows: condition: 40 μl of 40 μM assembled CANC with 200 μl of cell lysate; co-sedimentation; CANC pulldown: 200 ul of cleared hypotonic lysate of transfected 293T cells was mixed with 40 ul of 40 uM assembled CANC nanotubes for 1 h at room temperature. The mix was spun through a 70% sucrose cushion at 15,000 x g, and the pellet was washed. Input, supernatant and pellet were blotted with HA- and CA-specific antibodies. Parallel samples without CANC served as control; only the target purified.

Test [2] shares this target. The test can be described thus: co-sedimentation; CANC pulldown: 200 ul of cleared hypotonic lysate of transfected 293T cells was mixed with 40 ul of 40 uM assembled CANC nanotubes for 1 h at room temperature. The mix was spun through a 70% sucrose cushion at 15,000 x g, and the pellet was washed. Input, supernatant and pellet were blotted with HA- and CA-specific antibodies. Parallel samples without CANC served as control; only the target purified.

Turning to “HA-tagged firefly luciferase (from UniProt P08659 1-550) (enzyme)”, in test [1], the binding result is “no binding”. As to “HA-tagged cleavage and polyadenylation specific factor 6 (CPSF6) (from UniProt Q16630 1-551)”, the binding entry in test [2] is recorded as “binds”.

Source of the values: PMC5599759.
